Three molecules from publication PMC5936999 can be followed below.

Chains of the proteins cited; added tags and fusions are not shown.
UniProt Q921F2: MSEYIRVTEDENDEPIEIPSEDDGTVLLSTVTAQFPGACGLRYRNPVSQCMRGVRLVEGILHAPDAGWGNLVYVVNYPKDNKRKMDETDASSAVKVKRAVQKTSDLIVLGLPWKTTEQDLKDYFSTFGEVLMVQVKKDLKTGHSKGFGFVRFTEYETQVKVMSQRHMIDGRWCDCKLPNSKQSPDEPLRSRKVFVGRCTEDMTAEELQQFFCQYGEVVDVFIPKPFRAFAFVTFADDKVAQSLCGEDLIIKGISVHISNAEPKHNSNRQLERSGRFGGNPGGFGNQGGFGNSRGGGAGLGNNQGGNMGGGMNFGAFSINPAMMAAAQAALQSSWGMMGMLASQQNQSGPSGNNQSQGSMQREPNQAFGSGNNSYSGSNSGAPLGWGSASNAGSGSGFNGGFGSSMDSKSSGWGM
UniProt Q60987: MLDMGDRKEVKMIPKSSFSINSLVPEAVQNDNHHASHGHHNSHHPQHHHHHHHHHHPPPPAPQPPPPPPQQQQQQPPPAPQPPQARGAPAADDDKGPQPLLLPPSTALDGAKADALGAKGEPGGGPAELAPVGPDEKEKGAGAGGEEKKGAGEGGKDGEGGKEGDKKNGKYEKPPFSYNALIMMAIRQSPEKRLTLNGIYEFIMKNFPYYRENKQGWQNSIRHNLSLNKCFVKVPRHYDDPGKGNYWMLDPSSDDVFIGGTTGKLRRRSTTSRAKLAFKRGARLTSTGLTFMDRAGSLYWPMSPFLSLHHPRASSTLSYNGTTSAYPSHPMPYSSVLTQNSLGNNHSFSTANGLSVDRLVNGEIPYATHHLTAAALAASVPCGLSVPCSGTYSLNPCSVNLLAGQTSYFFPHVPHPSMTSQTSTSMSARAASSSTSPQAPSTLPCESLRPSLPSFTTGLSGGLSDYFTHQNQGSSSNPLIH

This assay addresses T1, DROSHA (mouse (endogenous in embryonic dorsal telencephalon)) (UniProt Q5HZJ0).
T1 sequence: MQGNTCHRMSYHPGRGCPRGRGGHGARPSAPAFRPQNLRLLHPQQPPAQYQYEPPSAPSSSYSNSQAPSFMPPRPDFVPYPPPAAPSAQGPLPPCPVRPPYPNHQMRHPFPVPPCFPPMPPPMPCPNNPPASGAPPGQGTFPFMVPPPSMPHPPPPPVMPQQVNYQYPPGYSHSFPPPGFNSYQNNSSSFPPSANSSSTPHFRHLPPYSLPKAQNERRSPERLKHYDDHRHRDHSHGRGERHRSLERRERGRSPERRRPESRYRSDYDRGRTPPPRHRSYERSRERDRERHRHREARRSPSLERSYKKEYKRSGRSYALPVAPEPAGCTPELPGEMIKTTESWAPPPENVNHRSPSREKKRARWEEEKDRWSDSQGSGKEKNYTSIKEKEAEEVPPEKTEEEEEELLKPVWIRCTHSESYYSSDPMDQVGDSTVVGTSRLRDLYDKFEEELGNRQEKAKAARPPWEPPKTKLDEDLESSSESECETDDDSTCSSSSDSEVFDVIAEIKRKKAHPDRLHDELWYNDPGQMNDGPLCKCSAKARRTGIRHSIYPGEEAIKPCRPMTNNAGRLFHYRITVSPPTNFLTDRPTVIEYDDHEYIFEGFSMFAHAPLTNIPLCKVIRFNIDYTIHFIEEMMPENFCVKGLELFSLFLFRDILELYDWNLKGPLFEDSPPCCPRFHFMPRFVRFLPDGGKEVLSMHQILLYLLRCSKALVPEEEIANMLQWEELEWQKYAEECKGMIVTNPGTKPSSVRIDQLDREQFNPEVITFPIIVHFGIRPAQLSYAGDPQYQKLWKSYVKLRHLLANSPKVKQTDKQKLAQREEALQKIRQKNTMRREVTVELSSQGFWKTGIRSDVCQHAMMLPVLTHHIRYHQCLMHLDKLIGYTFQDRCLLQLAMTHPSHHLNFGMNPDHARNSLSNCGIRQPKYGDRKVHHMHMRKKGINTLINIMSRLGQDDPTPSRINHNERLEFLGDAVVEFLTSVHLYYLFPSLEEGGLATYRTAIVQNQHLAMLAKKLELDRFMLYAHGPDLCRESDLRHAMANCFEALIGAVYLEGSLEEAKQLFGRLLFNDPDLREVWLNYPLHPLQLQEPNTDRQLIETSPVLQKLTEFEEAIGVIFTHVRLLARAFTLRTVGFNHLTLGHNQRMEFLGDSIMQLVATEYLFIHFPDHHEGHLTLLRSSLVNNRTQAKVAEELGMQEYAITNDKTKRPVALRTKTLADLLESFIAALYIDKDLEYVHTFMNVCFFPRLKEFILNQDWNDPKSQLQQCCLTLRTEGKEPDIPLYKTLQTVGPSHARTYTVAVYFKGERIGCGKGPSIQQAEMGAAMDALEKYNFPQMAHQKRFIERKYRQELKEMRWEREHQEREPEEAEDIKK
Put plainly: co-IP; anti-DROSHA (or rabbit IgG, mock) on Protein G Dynabeads; lysates of E14.5 mouse dorsal telencephalon electroporated at E12.5 (Control and DGCR8 OE); Co-IP buffer 100 mM NaCl, 20 mM Tris, 1 mM EDTA, 0.5% NP-40; overnight at 4°C; western blot.

No constants are given. Whether binding was seen depends on the method and setting. In cells and extracts the contact can be indirect. Some entries that bind do so weakly or less than the wild type.

In the case of “TAR DNA-binding protein 43 (from UniProt Q921F2 1-414)”, the binding entry is recorded as “binds”.

As to “Forkhead box protein G1 (from UniProt Q60987 1-481)”, the binding result is on record as “binds”.

B1: DGCR8 (protein, UniProt Q9EQM6 1-773)
chain: METYESPSPLPREPAGEAMMENRACPFQVLPHEQSPPPPLQTSSDAEVMDVGSGGDGQSEPPADDPFNFYGASLLSKGSFSKGRLLIDPNCSGHSPRTARHAPAVRKFSPDLKLLKDVKISVSFTESCRSKDRKVLYTGVERSTRPECGQLLSPVSGDVHACPFGGSVGNGVGLGGESADKKDEENELDQEKRVEYAVLDELEDFTDNLELDEEGTGGFTAKAIVQRDRVDEEALNFSYEDDFDNDVDALLEEGLCAPKKRRMEEKYGGDSDHPSDGETSVQPMMTKIKTVLKSRGRPPTEPLPDGWIMTFHNSGVPVYLHRESRVVTWSRPYFLGTGSIRKHDPPLSSIPCLHYKKMKDNEEREQNCDLAPSGEVSPVKPLGRSAELDFPLEEPDSMGGDSGSMDEKDPLGAEAAAGALGQVKAKVEVCKDESVDLEEFRNYLEKRFDFEQVTVKKFRTWAERRQFNREMKRKQAESERPILPANQKLITLSVQDAPTKKEFVINPNGKSEVCILHEYMQRVLKVRPVYNFFECENPSEPFGASVTIDGVTYGSGTASSKKLAKNKAARATLEILIPDFVKQTSEEKPKDSEELEYFNHISIEDSRVYELTSKAGLLSPYQILHECLKRNHGMGDTSIKFEVVPGKNQKSEYVMACGKHTVRGWCKNKRVGKQLASQKILQLLHPHVKNWGSLLRMYGRESSKMVKQETSDKSVIELQQYAKKNRPNLHILSKLQEEMKRLAAEREETRKKPKMSIVASAQPGGEPLCTVDV
Take B1: the binding entry is “binds”.
